Publication doi:10.1101/2021.10.22.465432 (bioRxiv, 2021)
No constants are given. Whether binding was seen depends on the method and setting. Binding seen in cells or lysates may run through a third protein. Here binding means that the protein was enriched with, or labelled near, the bait; the list need not be complete.

By UniProt entry, the sequences of proteins in these tests, tags left out.
UniProt Q9WVA3: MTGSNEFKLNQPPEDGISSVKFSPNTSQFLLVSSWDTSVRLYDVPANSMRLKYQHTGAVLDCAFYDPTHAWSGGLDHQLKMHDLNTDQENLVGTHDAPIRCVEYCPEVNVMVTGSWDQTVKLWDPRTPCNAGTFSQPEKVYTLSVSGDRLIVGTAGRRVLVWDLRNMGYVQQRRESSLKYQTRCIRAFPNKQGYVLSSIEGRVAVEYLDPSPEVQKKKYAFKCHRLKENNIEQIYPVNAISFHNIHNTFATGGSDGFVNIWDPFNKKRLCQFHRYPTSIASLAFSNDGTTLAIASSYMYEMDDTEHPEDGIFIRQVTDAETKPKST
UniProt Q501J6: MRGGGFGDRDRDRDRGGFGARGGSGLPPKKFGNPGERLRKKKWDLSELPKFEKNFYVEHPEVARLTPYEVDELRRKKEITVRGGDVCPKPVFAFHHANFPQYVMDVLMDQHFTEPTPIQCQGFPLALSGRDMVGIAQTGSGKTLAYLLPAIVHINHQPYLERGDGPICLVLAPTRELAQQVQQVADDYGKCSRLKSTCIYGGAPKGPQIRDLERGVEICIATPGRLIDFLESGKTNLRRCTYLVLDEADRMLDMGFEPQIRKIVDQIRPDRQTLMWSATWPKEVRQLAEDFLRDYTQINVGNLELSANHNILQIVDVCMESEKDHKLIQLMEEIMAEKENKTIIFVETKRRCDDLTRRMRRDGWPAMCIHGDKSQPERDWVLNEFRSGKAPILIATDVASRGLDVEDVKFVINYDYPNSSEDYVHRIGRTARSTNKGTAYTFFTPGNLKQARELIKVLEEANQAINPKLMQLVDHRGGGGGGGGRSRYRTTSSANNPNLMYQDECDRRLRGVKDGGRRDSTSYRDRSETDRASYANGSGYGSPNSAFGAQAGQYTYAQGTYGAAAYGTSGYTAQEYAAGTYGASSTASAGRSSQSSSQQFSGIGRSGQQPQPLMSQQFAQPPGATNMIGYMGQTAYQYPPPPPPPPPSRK
UniProt O70133: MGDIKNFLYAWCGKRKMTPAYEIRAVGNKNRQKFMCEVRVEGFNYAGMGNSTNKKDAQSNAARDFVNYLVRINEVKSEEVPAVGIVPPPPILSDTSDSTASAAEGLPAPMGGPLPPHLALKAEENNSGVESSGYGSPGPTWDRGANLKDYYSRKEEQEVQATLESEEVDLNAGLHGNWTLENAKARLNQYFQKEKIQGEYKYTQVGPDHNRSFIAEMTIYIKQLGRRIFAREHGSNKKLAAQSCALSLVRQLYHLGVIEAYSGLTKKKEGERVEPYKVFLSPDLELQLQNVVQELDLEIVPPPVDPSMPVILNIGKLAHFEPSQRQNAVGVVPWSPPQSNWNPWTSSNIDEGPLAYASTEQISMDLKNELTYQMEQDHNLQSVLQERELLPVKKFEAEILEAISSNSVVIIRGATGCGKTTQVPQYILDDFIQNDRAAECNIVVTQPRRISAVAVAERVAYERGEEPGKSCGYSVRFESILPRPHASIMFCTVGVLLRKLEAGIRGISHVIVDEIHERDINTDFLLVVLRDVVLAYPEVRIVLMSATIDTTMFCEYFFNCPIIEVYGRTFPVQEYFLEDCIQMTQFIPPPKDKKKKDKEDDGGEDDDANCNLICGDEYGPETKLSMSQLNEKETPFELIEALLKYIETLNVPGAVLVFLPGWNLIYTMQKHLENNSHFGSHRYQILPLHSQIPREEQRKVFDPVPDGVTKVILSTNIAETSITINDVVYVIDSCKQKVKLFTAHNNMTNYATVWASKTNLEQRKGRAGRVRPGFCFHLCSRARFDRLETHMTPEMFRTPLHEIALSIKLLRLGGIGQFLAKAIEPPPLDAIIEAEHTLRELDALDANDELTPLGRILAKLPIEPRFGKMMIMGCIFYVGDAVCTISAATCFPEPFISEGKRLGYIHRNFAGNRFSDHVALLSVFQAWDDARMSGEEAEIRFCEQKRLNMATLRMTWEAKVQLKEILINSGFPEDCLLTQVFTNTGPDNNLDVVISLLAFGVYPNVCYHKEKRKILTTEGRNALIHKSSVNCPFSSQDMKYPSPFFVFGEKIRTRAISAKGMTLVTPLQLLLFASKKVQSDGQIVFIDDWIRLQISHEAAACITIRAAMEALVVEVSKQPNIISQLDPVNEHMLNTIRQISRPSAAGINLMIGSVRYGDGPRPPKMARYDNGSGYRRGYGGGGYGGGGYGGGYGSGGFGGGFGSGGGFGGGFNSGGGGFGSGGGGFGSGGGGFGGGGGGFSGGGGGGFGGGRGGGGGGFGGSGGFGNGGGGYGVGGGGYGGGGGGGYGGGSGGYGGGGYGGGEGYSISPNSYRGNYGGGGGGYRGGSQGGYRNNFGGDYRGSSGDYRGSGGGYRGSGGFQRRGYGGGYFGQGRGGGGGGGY
UniProt O88569: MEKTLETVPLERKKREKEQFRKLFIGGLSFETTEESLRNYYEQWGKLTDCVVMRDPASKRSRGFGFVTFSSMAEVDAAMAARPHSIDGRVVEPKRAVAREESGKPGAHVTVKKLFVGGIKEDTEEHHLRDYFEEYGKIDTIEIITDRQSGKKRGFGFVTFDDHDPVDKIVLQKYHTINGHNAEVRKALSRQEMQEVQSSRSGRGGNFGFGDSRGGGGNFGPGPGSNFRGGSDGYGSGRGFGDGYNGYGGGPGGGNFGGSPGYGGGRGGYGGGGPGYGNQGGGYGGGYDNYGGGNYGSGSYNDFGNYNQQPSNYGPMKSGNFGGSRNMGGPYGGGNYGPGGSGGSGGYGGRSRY
UniProt Q8VEK3: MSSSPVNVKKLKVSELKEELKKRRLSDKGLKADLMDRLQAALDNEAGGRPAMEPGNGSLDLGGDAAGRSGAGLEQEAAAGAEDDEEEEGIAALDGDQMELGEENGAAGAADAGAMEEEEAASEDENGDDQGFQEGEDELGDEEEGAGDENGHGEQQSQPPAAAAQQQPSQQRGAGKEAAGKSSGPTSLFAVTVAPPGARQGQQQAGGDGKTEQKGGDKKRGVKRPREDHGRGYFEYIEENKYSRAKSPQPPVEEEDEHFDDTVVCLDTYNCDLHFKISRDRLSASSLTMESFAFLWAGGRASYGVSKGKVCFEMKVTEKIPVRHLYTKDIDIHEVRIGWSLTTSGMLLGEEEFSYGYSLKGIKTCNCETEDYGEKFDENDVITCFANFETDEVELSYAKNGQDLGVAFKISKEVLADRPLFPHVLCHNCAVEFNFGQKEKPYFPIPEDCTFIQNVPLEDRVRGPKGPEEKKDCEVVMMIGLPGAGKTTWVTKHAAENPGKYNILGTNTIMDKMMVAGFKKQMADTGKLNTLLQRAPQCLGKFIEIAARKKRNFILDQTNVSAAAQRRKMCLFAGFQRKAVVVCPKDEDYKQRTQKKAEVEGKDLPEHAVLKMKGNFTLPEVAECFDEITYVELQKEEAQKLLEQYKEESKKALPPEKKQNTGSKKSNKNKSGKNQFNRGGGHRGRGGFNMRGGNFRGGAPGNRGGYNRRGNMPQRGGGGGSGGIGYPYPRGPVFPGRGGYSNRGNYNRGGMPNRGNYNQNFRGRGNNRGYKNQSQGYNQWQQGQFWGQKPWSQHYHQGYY
UniProt Q80YR5: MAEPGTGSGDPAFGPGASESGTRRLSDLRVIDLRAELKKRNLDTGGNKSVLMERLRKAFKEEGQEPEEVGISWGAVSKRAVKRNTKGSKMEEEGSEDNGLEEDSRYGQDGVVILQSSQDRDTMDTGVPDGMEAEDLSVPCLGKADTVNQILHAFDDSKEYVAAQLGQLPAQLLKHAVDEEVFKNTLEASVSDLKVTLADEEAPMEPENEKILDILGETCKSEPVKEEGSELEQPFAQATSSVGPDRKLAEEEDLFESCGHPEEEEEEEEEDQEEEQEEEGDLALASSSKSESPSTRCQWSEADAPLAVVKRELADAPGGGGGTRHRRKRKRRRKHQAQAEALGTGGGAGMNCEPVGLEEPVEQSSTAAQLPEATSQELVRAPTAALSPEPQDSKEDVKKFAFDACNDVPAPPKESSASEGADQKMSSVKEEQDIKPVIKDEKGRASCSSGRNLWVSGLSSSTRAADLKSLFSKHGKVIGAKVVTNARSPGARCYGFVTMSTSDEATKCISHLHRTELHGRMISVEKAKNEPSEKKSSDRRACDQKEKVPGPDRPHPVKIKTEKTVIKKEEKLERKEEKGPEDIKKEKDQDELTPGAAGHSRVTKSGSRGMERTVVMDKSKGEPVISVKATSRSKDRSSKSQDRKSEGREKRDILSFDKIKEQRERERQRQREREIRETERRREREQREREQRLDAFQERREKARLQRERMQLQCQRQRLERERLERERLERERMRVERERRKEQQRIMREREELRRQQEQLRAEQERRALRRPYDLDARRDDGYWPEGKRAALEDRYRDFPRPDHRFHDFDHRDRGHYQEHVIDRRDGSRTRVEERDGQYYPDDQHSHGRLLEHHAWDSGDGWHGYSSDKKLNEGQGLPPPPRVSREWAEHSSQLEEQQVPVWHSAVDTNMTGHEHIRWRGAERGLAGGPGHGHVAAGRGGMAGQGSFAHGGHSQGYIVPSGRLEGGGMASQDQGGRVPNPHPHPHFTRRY
UniProt Q60749: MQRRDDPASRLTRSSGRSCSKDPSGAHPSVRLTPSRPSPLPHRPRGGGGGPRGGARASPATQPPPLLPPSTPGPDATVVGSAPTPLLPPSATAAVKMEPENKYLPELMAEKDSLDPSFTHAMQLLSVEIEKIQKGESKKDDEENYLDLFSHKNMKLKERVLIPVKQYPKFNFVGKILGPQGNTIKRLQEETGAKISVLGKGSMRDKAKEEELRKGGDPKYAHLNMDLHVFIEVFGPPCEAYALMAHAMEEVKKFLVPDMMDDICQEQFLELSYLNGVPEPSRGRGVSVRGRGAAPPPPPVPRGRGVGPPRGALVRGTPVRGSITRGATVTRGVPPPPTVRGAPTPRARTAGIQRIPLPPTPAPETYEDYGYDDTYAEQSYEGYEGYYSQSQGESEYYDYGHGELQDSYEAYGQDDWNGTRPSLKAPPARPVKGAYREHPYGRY
UniProt D3YXK2: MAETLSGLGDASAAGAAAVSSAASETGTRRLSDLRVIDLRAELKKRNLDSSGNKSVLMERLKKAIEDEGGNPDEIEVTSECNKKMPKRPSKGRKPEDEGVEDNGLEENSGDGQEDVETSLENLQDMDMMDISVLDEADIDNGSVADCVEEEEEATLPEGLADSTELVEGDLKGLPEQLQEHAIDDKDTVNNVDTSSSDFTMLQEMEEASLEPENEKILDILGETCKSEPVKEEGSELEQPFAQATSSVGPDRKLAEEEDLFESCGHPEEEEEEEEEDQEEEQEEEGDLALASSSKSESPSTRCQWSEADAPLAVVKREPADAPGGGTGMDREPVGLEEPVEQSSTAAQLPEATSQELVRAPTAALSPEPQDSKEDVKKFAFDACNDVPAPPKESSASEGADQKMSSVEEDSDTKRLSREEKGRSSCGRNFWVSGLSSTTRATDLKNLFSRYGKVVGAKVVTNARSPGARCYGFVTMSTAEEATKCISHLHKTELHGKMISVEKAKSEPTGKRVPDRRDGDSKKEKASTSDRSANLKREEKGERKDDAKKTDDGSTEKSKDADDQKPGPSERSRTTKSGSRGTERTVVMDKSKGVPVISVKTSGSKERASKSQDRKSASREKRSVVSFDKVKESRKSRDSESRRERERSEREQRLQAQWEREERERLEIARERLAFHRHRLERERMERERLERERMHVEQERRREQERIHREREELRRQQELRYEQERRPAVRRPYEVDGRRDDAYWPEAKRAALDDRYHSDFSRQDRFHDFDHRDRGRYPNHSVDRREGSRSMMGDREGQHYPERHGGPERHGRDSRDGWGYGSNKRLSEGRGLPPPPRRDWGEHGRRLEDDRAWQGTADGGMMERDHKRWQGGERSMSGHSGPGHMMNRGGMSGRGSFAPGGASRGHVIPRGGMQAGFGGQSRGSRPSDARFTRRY
UniProt Q921F2: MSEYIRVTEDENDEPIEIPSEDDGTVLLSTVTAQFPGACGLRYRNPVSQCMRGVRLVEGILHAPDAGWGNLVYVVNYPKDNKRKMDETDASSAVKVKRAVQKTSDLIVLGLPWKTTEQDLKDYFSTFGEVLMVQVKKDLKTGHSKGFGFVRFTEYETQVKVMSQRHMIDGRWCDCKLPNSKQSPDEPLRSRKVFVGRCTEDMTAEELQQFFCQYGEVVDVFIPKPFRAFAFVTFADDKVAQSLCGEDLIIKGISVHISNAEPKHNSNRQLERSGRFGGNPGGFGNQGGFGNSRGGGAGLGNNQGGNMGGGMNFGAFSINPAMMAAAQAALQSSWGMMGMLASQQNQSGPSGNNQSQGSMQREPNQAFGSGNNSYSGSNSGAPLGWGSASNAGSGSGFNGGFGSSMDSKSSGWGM

T1: Drosha (mouse (endogenous in DG NSCs)) (UniProt Q5HZJ0)
T1 sequence: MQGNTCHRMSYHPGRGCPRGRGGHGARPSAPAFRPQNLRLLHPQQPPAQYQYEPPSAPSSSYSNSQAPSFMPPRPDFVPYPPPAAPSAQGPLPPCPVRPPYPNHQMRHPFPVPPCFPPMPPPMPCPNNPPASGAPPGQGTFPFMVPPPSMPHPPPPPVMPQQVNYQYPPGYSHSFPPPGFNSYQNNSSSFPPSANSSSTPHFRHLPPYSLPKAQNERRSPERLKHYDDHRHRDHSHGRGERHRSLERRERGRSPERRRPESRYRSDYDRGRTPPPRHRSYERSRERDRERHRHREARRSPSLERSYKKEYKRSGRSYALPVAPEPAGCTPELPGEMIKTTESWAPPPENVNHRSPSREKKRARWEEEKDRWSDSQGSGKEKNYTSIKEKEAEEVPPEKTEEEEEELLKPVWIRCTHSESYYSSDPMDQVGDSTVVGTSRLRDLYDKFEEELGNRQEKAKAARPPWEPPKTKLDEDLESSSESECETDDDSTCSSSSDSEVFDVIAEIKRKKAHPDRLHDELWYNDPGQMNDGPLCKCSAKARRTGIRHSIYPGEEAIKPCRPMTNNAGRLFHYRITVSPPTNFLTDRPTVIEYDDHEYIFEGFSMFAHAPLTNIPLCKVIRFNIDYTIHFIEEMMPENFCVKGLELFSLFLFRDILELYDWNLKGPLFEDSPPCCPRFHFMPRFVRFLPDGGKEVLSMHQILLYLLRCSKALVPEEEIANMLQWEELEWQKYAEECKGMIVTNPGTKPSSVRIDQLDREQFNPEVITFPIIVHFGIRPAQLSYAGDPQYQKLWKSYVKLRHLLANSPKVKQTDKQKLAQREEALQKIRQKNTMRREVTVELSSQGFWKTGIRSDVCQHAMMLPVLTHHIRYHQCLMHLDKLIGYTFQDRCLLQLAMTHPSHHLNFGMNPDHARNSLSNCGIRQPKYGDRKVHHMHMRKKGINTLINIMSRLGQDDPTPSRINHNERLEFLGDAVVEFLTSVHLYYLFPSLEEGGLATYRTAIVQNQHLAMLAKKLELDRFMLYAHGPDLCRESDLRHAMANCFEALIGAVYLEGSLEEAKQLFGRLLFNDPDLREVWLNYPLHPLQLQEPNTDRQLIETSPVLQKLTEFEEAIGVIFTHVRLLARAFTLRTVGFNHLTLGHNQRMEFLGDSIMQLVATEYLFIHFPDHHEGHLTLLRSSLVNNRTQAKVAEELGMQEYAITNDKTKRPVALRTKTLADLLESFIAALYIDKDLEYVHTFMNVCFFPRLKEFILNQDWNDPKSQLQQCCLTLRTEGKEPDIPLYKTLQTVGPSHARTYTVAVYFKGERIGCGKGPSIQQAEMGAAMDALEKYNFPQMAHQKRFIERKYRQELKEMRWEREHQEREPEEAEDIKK


Molecular target: T1, Drosha (mouse (endogenous in DG NSCs))
Assay: affinity purification with mass spectrometry

| binding | Molecule |
| --- | --- |
| binds | Bub3 (from UniProt Q9WVA3 1-326) |
| binds | Ddx17 (from UniProt Q501J6 1-650) |
| binds | Dhx9 (from UniProt O70133 1-1380) |
| binds | Hnrnpa2b1 (from UniProt O88569 1-353) |
| binds | Hnrnpu (from UniProt Q8VEK3 1-800) |
| binds | Safb2 (from UniProt Q80YR5 1-991) |
| binds | Sam68 (from UniProt Q60749 1-443) |
| binds | Scaffold Attachment Factor B1 (Safb1) (from UniProt D3YXK2 1-937) |
| binds | TDP-43 (from UniProt Q921F2 1-414) |
| binds | Sart1 (protein, UniProt Q9Z315 1-806) MGSSKKHRGEKEAAGTTAAAGTGGTTEQPPRHREHKKHKHRSSGGGSSGGERRKRSRERGSERGSGRRGAEAEARSGAHGRERSQAEPSERRVKREKRDDGYEAAASSKASSGDASSLSIEETNKLRAKLGLKPLEVNAVKKEAGTKEEPVAADVINPMALRQREELREKLAAAKEKRLLNQKLGKIKTLGEDDPWLDDTAAWIERSRQLQKEKDLAEKRAKLLEEMDQEFGVSTLVEEEFEQRRQDLYSARDLQGLTVEHAIDSFREGETVVLTLKDKGVLQDGEDVLVNVNMVDKERADKNVELRKKKPDYLPYAEDESVDDLAQQKPRSILAKYDEELEGERPHSFRLEQGGMADGLRERELEEIRTKLRLQAQSLSSVGPRLASEYLSPEEMVTFKKTKRRVKKIRKKEKEVIMRADDLLPLGDQTQDGDFGSRLRGRGRRRVPEVEEEALEDEEKDPVAQPPPSDDTRVENMDISDEEDGGALPPGSPEGLEEDEAELELQKQLEKGRRLRQLQQLQQLRDSGEKVLEIVKKLESRQRGWEEEEDPERKGTIVFNATSEFCRTLGEIPTYGLAGNREEQEELMDFERDEERSANGGSESDGEENIGWSTVNLDEEKQHQDFSASSTTILDEEPIVNRGLAAALLLCQNKGLLETTVQKVARVKAPNKSLPSAVYCIEDKMAIDDKYSRREEYRGFTQDFKEKDGYKPDVKIEYVDETGRKLTPKEAFRQLSHRFHGKGSGKMKTERRMKKLDEEALLKKMSSSDTPLGTVALLQEKQKAQKTPYIVLSGSGKSMNANTITK |
| binds | Sf1 (protein, UniProt Q64213 1-653) MATGANATPLDFPSKKRKRSRWNQDTMEQKTVIPGMPTVIPPGLTREQERAYIVQLQIEDLTRKLRTGDLGIPPNPEDRSPSPEPIYNSEGKRLNTREFRTRKKLEEERHTLITEMVALNPDFKPPADYKPPATRVSDKVMIPQDEYPEINFVGLLIGPRGNTLKNIEKECNAKIMIRGKGSVKEGKVGRKDGQMLPGEDEPLHALVTANTMENVKKAVEQIRNILKQGIETPEDQNDLRKMQLRELARLNGTLREDDNRILRPWQSSETRSITNTTVCTKCGGAGHIASDCKFQRPGDPQSAQDKARMDKEYLSLMAELGEAPVPASVGSTSGPATTPLASAPRPAAPASNPPPPSLMSTTQSRPPWMNSGPSENRPYHGMHGGGPGGPGGGPHSFPHPLPSLTGGHGGHPMQHNPNGPPPPWMQPPPPPMNQGPHPPGHHGPPPMDQYLGSTPVGSGVYRLHQGKGMMPPPPMGMMPPPPPPPSGQPPPPPSGPLPPWQQQQQQPPPPPPPSSSMASSTPLPWQQNTTTTTTSAGTGSIPPWQQQQAAAAASPGTPQMQGNPTMVPLPPGVQPPLPPGAPPPPPCSIECLLCLLSSPNSLCLSPNRAARIPPRGSDGPSHESEDFPRPLVTLPGRQPQQRPWWTGWFGKAA |
| binds | Prpf6 (protein, UniProt Q91YR7 1-941) MNKKKKPFLGMPAPLGYVPGLGRGATGFTTRSDIGPARDANDPVDDRHAPPGKRTVGDQMKKNQAADDDDEDLNDTNYDEFNGYAGSLFSSGPYEKDDEEADAIYAALDKRMDERRKERREQREKEEIEKYRMERPKIQQQFSDLKRKLAEVTEEEWLSIPEVGDARNKRQRNPRYEKLTPVPDSFFAKHLQTGENHTSVDPRQTQFGGLNTPYPGGLNTPYPGGMTPGLMTPGTGELDMRKIGQARNTLMDMRLSQVSDSVSGQTVVDPKGYLTDLNSMIPTHGGDINDIKKARLLLKSVRETNPHHPPAWIASARLEEVTGKLQVARNLIMKGTEMCPKSEDVWLEAARLQPGDTAKAVVAQAVRHLPQSVRIYIRAAELETDIRAKKRVLRKALEHVPNSVRLWKAAVELEEPEDARIMLSRAVECCPTSVELWLALARLETYENARKVLNKARENIPTDRHIWITAAKLEEANGNTQMVEKIIDRAITSLRANGVEINREQWIQDAEECDRAGSVATCQAVMRAVIGIGIEEEDRKHTWMEDADSCVAHNALECARAIYAYALQVFPSKKSVWLRAAYFEKNHGTRESLEALLQRAVAHCPKAEVLWLMGAKSKWLAGDVPAARSILALAFQANPNSEEIWLAAVKLESENNEYERARRLLAKARSSAPTARVFMKSVKLEWVLGNISAAQELCEEALRHYEDFPKLWMMKGQIEEQGELMEKAREAYNQGLKKCPHSTPLWLLLSRLEEKIGQLTRARAILEKSRLKNPKNPGLWLESVRLEYRAGLKNIANTLMAKALQECPNSGILWSEAVFLEARPQRKTKSVDALKKCEHDPHVLLAVAKLFWSERKITKAREWFHRTVKIDSDLGDAWAFFYKFELQHGTEEQQEEVRKRCENAEPRHGELWCAVSKDITNWQRKIGEILVLVAARIKNTF |
| binds | Pabpn1 (protein, UniProt Q8CCS6 1-302) MAAAAAAAAAAGAAGGRGSGPGRRRHLVPGAGGEAGEGDPGGAGDYGNGLESEELEPGELLPEPEPEEEPPRPRAPPGAPGPGPGSGAPGSQEEEEEPGLVEADPGDGAIEDPELEAIKARVREMEEEAEKLKELQNEVEKQMNMSPPPGNAGPVIMSLEEKMEADARSIYVGNVDYGATAEELEAHFHGCGSVNRVTILCDKFSGHPKGFAYIEFSDKESVRTSLALDESLFRGRQIKVIPKRTNRPGISTTDRGFPRSRYRARTTNYNSSRSRFYSGFNSRPRGRIYRGRARATSWYSPY |
| binds | Khsrp (protein, UniProt Q3U0V1 1-748) MSDYNTGGPPPGPPPPAGGGGGAAGAGGGPPPGPPGAGDRGGGGPGGGGPGGGGASGGPSQPPGGGGPGIRKDAFADAVQRARQIAAKIGGDAATTVNNNTPDFGFGGQKRQLEDGDQPDSKKLASQGDSIGSQLGPIHPPPRTSMTEEYRVPDGMVGLIIGRGGEQINKIQQDSGCKVQISPDSGGLPERSVSLTGAPESVQKAKMMLDDIVSRGRGGPPGQFHDNANGGQNGTVQEIMIPAGKAGLVIGKGGETIKQLQERAGVKMILIQDGSQNTNVDKPLRIIGDPYKVQQACEMVMDILRERDQGGFGDRNEYGSRVGGGIDVPVPRHSVGVVIGRSGEMIKKIQNDAGVRIQFKQDDGTGPEKIAHIMGPPDRCEHAARIINDLLQSLRSGPPGPPGAPGMPPGGRGRGRGQGNWGPPGGEMTFSIPTHKCGLVIGRGGENVKAINQQTGAFVEISRQLPPNGDPNFKLFVIRGSPQQIDHAKQLIEEKIEGPLCPVGPGPGGPGPAGPMGPFNPGPFNQGPPGAPPHAGGPPPHQYPPQGWGNTYPQWQPPAPHDPNKAAAAATDPNAAWAAYYSHYYQQPPGPVPGPAPAPAAPPAQGEPPQPPPTGQSDYTKAWEEYYKKIGQQPQQPGAPPQQDYTKAWEEYYKKQAQVATGGGPGAPPGSQPDYSAAWAEYYRQQAAYYGQTPGPGGPQPPPTQQGQQQASGNCHPPPPPFSFQPPATVHPALVGSAGNPFPCGVCP |
